Assay results: paper PMC8759039

Tests used:
[1] = target: EjRAV1 (Eriobotrya japonica) (UniProt A0A482LZ61); assay: EMSA; details: Beyotime EMSA/Gel Shift kit, chemiluminescent biotin detection; pH and temperature not stated; recombinant protein; residues 1-403; protein details: 6xHis (pET28a); label: biotin (ends)
[2] = target: EjRAV2 (Eriobotrya japonica) (UniProt A0A482LTM5); assay: EMSA; details: Beyotime EMSA/Gel Shift kit, chemiluminescent biotin detection; pH and temperature not stated; recombinant protein; residues 1-406; protein details: 6xHis (pET28a); label: biotin (ends)

Sequence	binding result [1]	binding result [2]
CAGGATCTATTGCCTTCCACCTGATCTATACCATCATTCCA (double strand) [EjSOC1-1-P5]	no binding	no binding
AATTAATGCTATAGGCTTGTTGCGTTTTCGACTTCTGATTGG (double strand) [EjSOC1-1-P2]	no binding	no binding
AGCAATACAGCATGCAACGCAACAGAATATAAATAGCCAATAGG (double strand) [EjFT2-P5]	no binding	no binding
GCACAAAATTTTGGAATCATCTTGTTGAGGATGAATTTCACAGTGAT (double strand) [EjFT2-P2]	no binding	no binding
GGAAAAGGGCAAAATGTGTTGTGCCAGACAAGGTGG (double strand) [EjSOC1-1-P1]	no binding	no binding
GTGTATGGATATAAAGTTCAACATTGAAAATCTAAAATAAT (double strand) [EjFT2-P3]	no binding	no binding
AAAGGGTAGGTGTGTTGGTTGCCTAAGGTCAATCATC (double strand) [EjSOC1-1-P4]	no binding	no binding
CAAAATAAAATGAAAAGTACAACAAATTAGGAGACAAGATGCCT (double strand) [EjFT2-P4]	no binding	no binding
GGTTAAGTAATAATCTAATAATCAACAATCACATTATTTAGTT (double strand) [EjSOC1-2-P1]	no binding	no binding
GTAGTCGTACGGACGATGTTGATGTATTGCTAACATTGT (double strand) [EjSOC1-1-P3]	no binding	no binding
CATTTCTCAAATAGCACTTATCAACATATATTCTGGATCAATTCAGG (double strand) [EjFT2-P1]	no binding	no binding

No signal at the amounts used counts as a negative. At least one verdict rests on a figure or table, not on a statement of the authors.
